From patent US20150045358A1, “PHARMACEUTICAL COMPOSITION FOR TREATING DISORDERS ASSOCIATED WITH INSULIN RESISTANCE” (National Central University, priority 2012, published 2015)
At least one structure is not confirmed: it was looked up by name or label, or the drawing left a doubt.

What was measured:
JNKs = JNKs phosphorylation in differentiated 3T3-L1 adipocytes (Western blotting); assay type: cell-based; conditions: inhibitor 20 μM pretreated 30 minutes, then 100 nM ET-1
Method: (§1) Referring to FIGS. 2A, 2B, 2C, 2D, and 2E which are presented to detect the time-dependent effect of ET-1 on ET-1 signaling molecules, including ERK1 /2, JNKs, p38, […] or STAT3 proteins, the differentiated 3T3-L1 adipocytes are treated with or without 100 nM ET-1 at different time points, such as 2, 5, 15, 30, 120, and 240 minutes. After ET-1 incubation, the total protein amounts and the phosphorylation levels of each ET-1 signaling molecule are determined by Western blotting analysis.
(§2) Referring to FIGS. 3A, 3B, and 3C which are presented to further study the endothelin receptor-dependent of ET-1 on the phosphorylation of downstream signaling molecules and on resistin mRNA expression, the differentiated 3T3-L1 adipocytes are pretreated with or without either 1 μM BQ610 (an ETAR inhibitor) or 1 μM BQ788 (an endothelin type B receptor (ETBR) inhibitor) for 1 hour, and then incubated with 100 nM ET-1. After different time points of ET-1 treatment, ET-1 signaling molecules, such as ERK1/2, JNKs, P38, AKT, and STAT3 proteins, and resistin mRNA levels are determined by Western blotting analysis and PCR analysis, respectively. FIG. 3A, 3B, and 3C are presented with or without 5, 15, and 120 minutes of 100 nM ET-1 treatments, respectively. […]

AKT = AKT phosphorylation in differentiated 3T3-L1 adipocytes (Western blotting); assay type: cell-based; conditions: inhibitor 0.2 μM pretreated 30 minutes, then 100 nM ET-1
Method: as §1, §2

## Oc1c2ccccc2c2c3c(cccc13)N=N2 [SP600125, anthrapyrazolone]
JNKs
  ET-1-stimulated phosphorylation of JNKs: inhibited

## COC[C@H]1OC(=O)c2coc3c2[C@@]1(C)C1=C(C3=O)[C@@H]2CCC(=O)[C@@]2(C)C[C@H]1OC(C)=O [wortmannin]
AKT
  ET-1-stimulated phosphorylation of AKT: inhibited
